The values that follow come from publication doi:10.1101/2023.01.23.525126.

These are yes or no findings as the source states them, for the method shown. Binding seen in cells or lysates may run through a third protein. Some binding calls cover weakened binding; strength is not graded here. Tags and fused reporters may be left off the sequences shown.

The test concerns the target T1, DRACC1 (Disordered Region And Coiled-Coil Domain 1; FAM81A), DRACC1-FLAG (mouse) (UniProt Q3UXZ6).
T1 sequence: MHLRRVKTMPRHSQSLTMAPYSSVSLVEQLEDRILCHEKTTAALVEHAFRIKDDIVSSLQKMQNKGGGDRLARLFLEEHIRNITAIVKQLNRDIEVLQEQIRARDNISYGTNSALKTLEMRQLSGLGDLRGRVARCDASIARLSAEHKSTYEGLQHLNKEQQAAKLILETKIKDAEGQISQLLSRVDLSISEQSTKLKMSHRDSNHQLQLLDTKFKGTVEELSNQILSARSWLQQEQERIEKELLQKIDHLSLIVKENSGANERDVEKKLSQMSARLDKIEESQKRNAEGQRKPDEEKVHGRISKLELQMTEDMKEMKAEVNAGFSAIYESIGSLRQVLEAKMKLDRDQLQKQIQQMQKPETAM
The experiment in a line: co-IP.

B1: GFP-SynGAP (protein, UniProt Q9QUH6 1-1308)
chain: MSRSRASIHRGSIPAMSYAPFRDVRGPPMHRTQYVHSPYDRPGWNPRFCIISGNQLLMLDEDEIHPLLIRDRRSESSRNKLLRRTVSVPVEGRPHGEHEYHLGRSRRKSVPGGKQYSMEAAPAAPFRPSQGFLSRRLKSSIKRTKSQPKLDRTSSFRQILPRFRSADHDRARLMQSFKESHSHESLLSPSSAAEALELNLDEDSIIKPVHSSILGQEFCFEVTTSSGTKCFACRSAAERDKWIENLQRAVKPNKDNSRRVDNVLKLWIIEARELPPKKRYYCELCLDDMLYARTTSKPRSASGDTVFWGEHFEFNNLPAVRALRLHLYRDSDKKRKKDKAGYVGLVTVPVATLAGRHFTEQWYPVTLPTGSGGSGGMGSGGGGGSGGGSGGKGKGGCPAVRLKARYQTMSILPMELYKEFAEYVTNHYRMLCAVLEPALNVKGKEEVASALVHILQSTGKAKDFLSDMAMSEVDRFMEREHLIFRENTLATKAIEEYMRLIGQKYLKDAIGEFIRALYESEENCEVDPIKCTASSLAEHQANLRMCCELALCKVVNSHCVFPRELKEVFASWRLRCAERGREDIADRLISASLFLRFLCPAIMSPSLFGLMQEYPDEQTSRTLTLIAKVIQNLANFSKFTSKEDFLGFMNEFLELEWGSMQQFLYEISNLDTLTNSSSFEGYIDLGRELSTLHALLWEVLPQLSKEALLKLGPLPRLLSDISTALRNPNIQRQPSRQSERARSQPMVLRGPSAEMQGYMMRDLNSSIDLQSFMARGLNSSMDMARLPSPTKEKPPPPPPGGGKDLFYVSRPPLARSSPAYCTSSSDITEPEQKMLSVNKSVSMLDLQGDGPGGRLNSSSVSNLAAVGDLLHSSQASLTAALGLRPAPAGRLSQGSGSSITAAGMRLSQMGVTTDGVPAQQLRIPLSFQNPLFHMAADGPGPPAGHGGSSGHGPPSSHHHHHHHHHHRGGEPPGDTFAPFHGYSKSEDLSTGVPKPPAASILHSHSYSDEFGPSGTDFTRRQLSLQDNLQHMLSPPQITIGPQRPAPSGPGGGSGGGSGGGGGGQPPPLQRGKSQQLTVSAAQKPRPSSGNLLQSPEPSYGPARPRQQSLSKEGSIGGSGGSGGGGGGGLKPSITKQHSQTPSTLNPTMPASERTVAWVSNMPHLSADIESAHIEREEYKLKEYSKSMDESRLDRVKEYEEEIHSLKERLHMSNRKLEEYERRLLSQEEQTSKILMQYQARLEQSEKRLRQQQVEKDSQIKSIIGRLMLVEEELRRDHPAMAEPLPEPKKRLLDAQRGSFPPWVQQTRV
Consider B1, for which the binding result was “binds”.

B2: DRACC1 (Disordered Region And Coiled-Coil Domain 1; FAM81A), DRACC1-FLAG (protein, UniProt Q3UXZ6 1-364)
chain: MHLRRVKTMPRHSQSLTMAPYSSVSLVEQLEDRILCHEKTTAALVEHAFRIKDDIVSSLQKMQNKGGGDRLARLFLEEHIRNITAIVKQLNRDIEVLQEQIRARDNISYGTNSALKTLEMRQLSGLGDLRGRVARCDASIARLSAEHKSTYEGLQHLNKEQQAAKLILETKIKDAEGQISQLLSRVDLSISEQSTKLKMSHRDSNHQLQLLDTKFKGTVEELSNQILSARSWLQQEQERIEKELLQKIDHLSLIVKENSGANERDVEKKLSQMSARLDKIEESQKRNAEGQRKPDEEKVHGRISKLELQMTEDMKEMKAEVNAGFSAIYESIGSLRQVLEAKMKLDRDQLQKQIQQMQKPETAM
Take B2: the binding result is “binds”.
